Results taken from US20220089646A1 (THE UNIVERSITY OF QUEENSLAND, priority 2019, published 2022).

assay: general procedure: Fmoc solid-phase peptide synthesis; Rink amide AM resin (0.60 meq/g); Rink amide resin (0.100 g, loading capacity 0.34 mmol/g); Oxyma Pure/DIC; HBTU/DIPEA for DP-7-11 and DP-7-12; details: whole synthesis, 219 nm

| Substance | final HPLC purity [%] |
| --- | --- |
| c(Tyr-Gly-Gly-Phe-D(Asp)-Arg-SSa-Ile-Arg-Pro-Lys) | 88.2 |
| PEPTIDE1{Y.G.G.F.L.R.R.[am]}$$$$V2.0 | 99.2 |
| PEPTIDE1{Y.G.G.F.L.R.R.I.R.P.K.[am]}$$$$V2.0 | 98.4 |

same assay, conditions: whole synthesis, analytical RP-HPLC

| Substance | final HPLC purity [%] |
| --- | --- |
| PEPTIDE1{Y.G.[XSSahebb624].F.[XAsp4h4ecf53].R.R.[am]}$PEPTIDE1,PEPTIDE1,5:R3-3:R3$$$V2.0 | 90.65 |
| c(Tyr-Sar(p-NO2-Phe)-Leu-Arg-D(Arg)-SSa-Arg-D(Asp)-Lys | 97.95 |
| PEPTIDE1{Y.[XSarh5118e0].[XClFh65aecc].L.R.[dR].[XSSahebb624].R.[XAsp8h4ecf53].K.[am]}$PEPTIDE1,PEPTIDE1,9:R3-7:R3$$$V2.0 | 97.53 |
| PEPTIDE1{Y.[Sar].[p-Cl-Phe].L.R.[dR].[SSa].D.[am]}$PEPTIDE1,PEPTIDE1,7:R3-8:R3$$$V2.0 | 99.50 |
| PEPTIDE1{Y.G.[XAsp2h4ecf53].F.[XSSahebb624].R.R.[am]}$PEPTIDE1,PEPTIDE1,3:R3-5:R3$$$V2.0 | 92.67 |
| PEPTIDE1{Y.[XAsp1h4ecf53].G.F.[XSSahebb624].R.R.[am]}$PEPTIDE1,PEPTIDE1,2:R3-5:R3$$$V2.0 | 94.71 |
| PEPTIDE1{Y.[XSSahebb624].G.F.[XAsp4h4ecf53].R.R.[am]}$PEPTIDE1,PEPTIDE1,5:R3-2:R3$$$V2.0 | 98.55 |
| PEPTIDE1{Y.[XSarh5118e0].[XClFh65aecc].L.R.[XNMAh0fabbf].[XSSahebb624].R.[XAsp8h4ecf53].K.[am]}$PEPTIDE1,PEPTIDE1,9:R3-7:R3$$$V2.0 | 93.77 |
| PEPTIDE1{Y.[XSarh5118e0].[XNO2Fh644d83].L.R.[XNMAh0fabbf].[XSSahebb624].R.[XAsp8h4ecf53].K.[am]}$PEPTIDE1,PEPTIDE1,9:R3-7:R3$$$V2.0 | 96.77 |
| c(Tyr-Gly-SSa-Phe-D(Asp)-Arg-Arg) | 88.51 |
| PEPTIDE1{Y.G.[dD].F.[SSa].R.R.[am]}$PEPTIDE1,PEPTIDE1,3:R3-5:R3$$$V2.0 | 91.10 |
| c(Tyr-Sar-(p-NO2-Phe)-Leu-Arg-NMA-D(Asp)-D(Arg)-SSa-D(Lys)) | 99.25 |

Some peptides are written in HELM: one residue between dots, names in brackets for other building blocks, links after the first $.
